This is one part of the list. These are further read-outs of the screen, such as a control signal, another cell line or another target. No call is given for them. Compounds called inactive in the main read-out are mostly missing here. Potencies come from curve fits of mixed quality, noted in brackets.

One may read the AC50 as the concentration at which the activity in the assay is half-maximal. A higher AC50 goes with activity only at high concentration.

The nature of the assay: qHTS Assay for Lipid Storage Modulators in Drosophila S3 Cells.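 For cell number change: cells counted by Cell Tracker Red CMTPX staining in the red channel.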 Conditions: BODIPY lipid droplet fluorescence, 18-24 h; for cell number change: measured here: cell count max response, cells fed with added oleic acid. Summed up:
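Laser-scanning cytometry quantifies lipid droplet accumulation (500–530 nm total intensity; droplet/cell object ratio) in oleic acid-fed (400 uM added) Drosophila S3 cells treated with a concentration series. 20 uM Triacsin C defined 100% inhibition.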

Where [1] appears, read: measured here: cell number channel AC50, cells fed with added oleic acid.
The mark [2] stands for this setting: measured here: lipid fluorescence (Fed channel) AC50, cells fed with added oleic acid.

As for `COc1ccc(CNC(=O)CSC(=S)N2CCCC2)cc1`, the cell number change was -25%. Further, under setting [1], the AC50 is 0.731 µM [rising, partial curve, poor fit]. Further, the concentration at half-maximal activity (AC50) under setting [2] is 23.1 µM [rising, partial curve].
Turning to `COc1cc(C(=O)NCC(=O)OCn2nnc3ccccc3c2=O)cc(OC)c1OC`, the half-maximal activity concentration (AC50) under setting [1] was 1.64 µM [falling, partial curve].
For the compound `COc1ccccc1CC(=O)Nc1ccc(-c2noc(COc3cccc(C)c3C)n2)cc1`, the cell number change stood at 8.67%.
As for `CCOC(=O)C1=C(C)NC(=S)NC1c1ccc(OCC(=O)N2CCCCC2)cc1` (stereo unspecified), under setting [2], the AC50 was 0.517 µM [falling, partial curve].
Consider `c1ccc2c(c1)nnn1c3ccccc3nc21`, for which the cell number change was 4.75%. Further, under setting [2], the AC50 was 0.651 µM [rising, full curve, poor fit].
`CCN(C(=O)COC(=O)c1cccnc1SC)C1CCS(=O)(=O)C1` (stereo unspecified): the cell number change was -12%. Besides, the AC50 under setting [2] is 0.116 µM [falling, full curve].
In the case of `COc1ccc(NC(=O)CSc2nnc(C)n2C2CC2)cc1S(=O)(=O)N1CCOCC1`, the cell number change is -0.0651%. Besides, the AC50 under setting [2] is 1.3 µM [falling, full curve].
On to `COC(=O)[C@@H]1C(c2ccccc2)(c2ccccc2)[C@@]1(C)C(=O)OC`, for which the cell number change was -7.95%. Under setting [2], the concentration at half-maximal activity (AC50) was 6.51 µM [falling, single point].
Take `Cc1ccc2[nH]c(C)c(/C=N/Nc3nc4ccccc4s3)c2c1`: the cell number change was -30.4%. Also, the AC50 under setting [1] is 20.6 µM [falling, single point].
Consider `CCOCCCn1c(SCC(=O)NCc2ccco2)nc2c(sc3ccccc32)c1=O`, for which the cell number change was determined as 7.32%. Besides, the AC50 under setting [2] is 0.731 µM [rising, full curve, poor fit].
Consider `Cc1cc2c(cc1S(=O)(=O)CCC(=O)NCCc1ccccc1)OCC(=O)N2`, for which the cell number change stood at 12.4%.
Take `COc1ccccc1CNS(=O)(=O)c1cc(CN2C(=O)c3cccnc3C2=O)ccc1OC`: the cell number change turned out to be 2.67%. Besides, the AC50 under setting [2] was 0.0731 µM [falling, single point].
Take `COc1cc(OC)cc(C(=O)N[C@H](C(=O)OCC(=O)Nc2ccc(C)cc2C)C(C)C)c1`: the cell number change came to 45.2%. Moreover, under setting [1], the concentration at half-maximal activity (AC50) is 1.84 µM [rising, partial curve]. Further, the concentration at half-maximal activity (AC50) under setting [2] was 0.116 µM [rising, single point].
`COc1ccc(NC(=O)CN2CCc3ccccc3C2)c([N+](=O)[O-])c1`: the cell number change was -18%.
Regarding `Cc1ccc(S(=O)(=O)N(C)c2nonc2C)cc1`, the cell number change turned out to be 3.57%.
As to `O=C(c1ccc(Cl)cc1)N1CCOc2ccccc21`, the cell number change was -55.2%. Moreover, the AC50 under setting [1] is 20.6 µM [falling, single point]. Besides, the half-maximal activity concentration (AC50) under setting [2] is 29.1 µM [falling, single point].
Turning to `CC(C)(C)c1ccc(/C=C/C(=O)Nc2cccnc2)cc1`, the cell number change is -26.4%. For the same compound, the AC50 under setting [2] is 32.6 µM [falling, single point].
Regarding `CCCc1[nH]nc2c1C1(C(=O)N(CC)c3ccccc31)C(C#N)=C(N)O2` (stereo unspecified), the cell number change came to 16.8%. Moreover, under setting [1], the AC50 is 0.164 µM [falling, full curve, poor fit].
With `Cc1ccccc1OCC(=O)OCC(=O)Nc1ccc(S(N)(=O)=O)cc1`, the cell number change is -7.08%. Moreover, the AC50 under setting [1] was 6.51 µM [falling, single point].
In the case of `CC(=O)Oc1cccc(N2C(=O)c3ccccc3C2=O)c1`, the cell number change is -8.52%. Further, the AC50 under setting [2] was 0.58 µM [falling, full curve].
As to `COc1cccc(C(=O)N/N=C/c2ccc(Oc3ccc([N+](=O)[O-])cn3)c(OC)c2)c1`, the AC50 is 0.146 µM [falling, full curve, poor fit] under setting [1] and 0.651 µM [rising, single point] under setting [2].
`CN1CC[C@]23c4ccccc4N[C@H]1[C@]21CCN(C)[C@H]3Nc2ccccc21`: the cell number change is 2.19%. In addition, the half-maximal activity concentration (AC50) under setting [2] was 0.184 µM [rising, full curve, poor fit].
Turning to `COc1cc(C(=O)NCCNC(=O)c2cnccn2)cc(OC)c1OC`, the cell number change is -31.6%. The AC50 under setting [1] is 29.1 µM [falling, single point].
Regarding `CCOc1ccc2nc(NC(=O)C(CC)Sc3nc(C)cc(=O)[nH]3)sc2c1` (stereo unspecified), the cell number change is -6.49%.
For `O=C(NCC(O)c1ccccc1)c1ccc(Cl)c(S(=O)(=O)N2CCCCC2)c1` (stereo unspecified), the cell number change was 9.28%. For the same compound, under setting [2], the AC50 is 12.6 µM [falling, single point].
As to `O=C(NCc1ccccc1F)C1CCCN1S(=O)(=O)c1ccc(F)cc1` (stereo unspecified), the cell number change was -3.41%. Besides, the AC50 under setting [2] was 14.6 µM [falling, partial curve].
With `COc1ccc(N=C2C(=Nc3ccc(OC)cc3)N(c3ccccc3)C(=S)N2C(=O)c2ccc(Cl)cc2)cc1`, the cell number change was -45.2%. Moreover, the AC50 under setting [1] is 0.58 µM [falling, full curve]. The AC50 under setting [2] was 0.517 µM [falling, full curve].
`CCCc1ccc(-c2cc(NC(=O)CSc3nnc(N)s3)n(-c3ccccc3)n2)cc1`: the cell number change was -22.9%. In addition, under setting [2], the AC50 is 10.3 µM [falling, partial curve].
Regarding `CCOC(=O)c1[nH]c2ccc(C)cc2c1N=CN(CC)CC`, the cell number change is -14.1%.
Turning to `Cc1ccc(S(=O)(=O)Nc2cc(Cl)c(O)c3ncccc23)cc1`, the cell number change is 8.87%. In addition, the AC50 under setting [1] is 3.55 µM [rising, single point]. The AC50 under setting [2] was 5.62 µM [rising, single point].
Turning to `O=C(NC1(C(F)(F)F)C(=O)Nc2c1c(=O)[nH]c(=O)n2Cc1ccccc1)c1ccco1` (stereo unspecified), the cell number change was -14.3%. Further, the AC50 under setting [2] is 1.16 µM [falling, full curve, poor fit].
With `CC1CCCCN1C(=O)COC(=O)c1cc(Cl)c2c(c1)OCO2` (stereo unspecified), the cell number change amounted to 50%. Also, under setting [1], the AC50 is 0.146 µM [falling, full curve, poor fit].
For `O=C(Nc1ccc(-n2cccn2)cc1)C1CCN(Cc2ccccn2)CC1`, the cell number change is -21.3%. Also, the AC50 under setting [2] was 29.1 µM [rising, single point].
With `O=C(Nc1ccccc1Cl)Nn1cnnc1`, the AC50 under setting [2] was 29.1 µM [rising, single point].
As for `COc1ccc(C(=O)CSc2nnc3n2CCCN3C(=O)Nc2ccccc2)cc1`, the cell number change is -20.4%. The AC50 under setting [2] was 13 µM [falling, partial curve, poor fit].
Regarding `CCOC(=O)c1ccc2c(c1)nc(-c1ccccn1)n2CC`, the cell number change amounted to 13.4%.
For the compound `CCOC(=O)N1CCN(C(=O)Cc2c(C(=O)O)n(C)c3ccccc23)CC1`, the cell number change worked out at 10.8%. Besides, under setting [2], the AC50 is 0.0517 µM [rising, full curve, poor fit].
For `COc1ccc(CC(=O)Nc2nncs2)cc1OC`, the cell number change worked out at 8.12%. The AC50 under setting [2] was 18.4 µM [falling, single point].
Take `OCC1OC(Oc2cccc3ccccc23)C(O)C(O)C1O` (stereo unspecified): the cell number change came out at 44.4%. Besides, the concentration at half-maximal activity (AC50) under setting [1] was 29.1 µM [rising, single point]. The AC50 under setting [2] was 29.1 µM [rising, single point].
For the compound `COc1ccc(OC)c(C(=O)/C=C/c2ccccc2C(F)(F)F)c1`, the cell number change is -4.6%. Further, under setting [2], the AC50 was 18.4 µM [falling, single point].
For the compound `O=C(NNc1ccccc1)C(=O)NNS(=O)(=O)c1ccc(CCCl)cc1`, the cell number change is -14.5%. Under setting [2], the concentration at half-maximal activity (AC50) is 0.651 µM [falling, full curve].
In the case of `Cc1cccc(N2CC(C(=O)OCC(=O)c3c(N)n(CC(C)C)c(=O)n(C)c3=O)CC2=O)c1C` (stereo unspecified), the cell number change was 154%. In addition, under setting [1], the AC50 was 29.1 µM [rising, partial curve].
On to `O=C(N/N=C/c1ccc(O)cc1O)c1ccc(NC(=O)C2CCCCC2)cc1`, for which the cell number change is -51.3%. In addition, the AC50 under setting [1] was 16.4 µM [falling, partial curve]. The AC50 under setting [2] is 14.6 µM [falling, partial curve].
As to `Cn1c(=O)cc(OCCCC(=O)N2CCN(Cc3ccc4c(c3)OCO4)CC2)c2ccccc21`, the cell number change was -131%. Besides, the concentration at half-maximal activity (AC50) under setting [1] was 29.1 µM [falling, single point].
On to `Cc1c(CCOC(=O)C23CC4(C)CC(C)(CC(C)(C4)C2)C3)sc[n+]1CC(=O)c1ccccc1`, for which, under setting [2], the concentration at half-maximal activity (AC50) is 23.1 µM [falling, partial curve].
For `O=C1OC(=O)c2c(Br)c(Br)c(Br)c(Br)c21`, the cell number change stood at 2.39%. Also, the AC50 under setting [2] was 0.116 µM [falling, full curve].
Turning to `Cc1c(NC(=O)c2cc3ccccc3o2)c(=O)n(-c2ccccc2)n1C`, the cell number change was -4.25%.
In the case of `CCCCc1ccc(CC2S/C(=C(\C#N)C(=O)N3CCOCC3)N(c3ccccc3)C2=O)cc1` (stereo unspecified), under setting [1], the AC50 was 2.31 µM [rising, single point].
For `COc1cccc(/C=N/NC(=O)CC2C(=O)NN=C2C)c1OC` (stereo unspecified), the cell number change is -24.4%. Besides, the half-maximal activity concentration (AC50) under setting [1] was 4.11 µM [falling, single point].
As for `CC(C)CNC(=O)c1cccc(NC(=O)c2ccc(Cl)c([N+](=O)[O-])c2)c1`, the cell number change was -1.25%. The AC50 under setting [2] is 29.1 µM [falling, partial curve, poor fit].
As to `Cc1ccc(-c2ccc(/C=C(\C#N)C(N)=S)o2)c([N+](=O)[O-])c1`, the cell number change is -36.6%. In addition, the AC50 under setting [1] is 23.1 µM [falling, single point]. Besides, the AC50 under setting [2] was 25.9 µM [falling, single point].
Regarding `COCCN(C(=O)COC(=O)/C=C/c1nc2ccccc2s1)c1c(N)n(Cc2ccccc2)c(=O)[nH]c1=O`, the AC50 under setting [2] is 11.6 µM [rising, partial curve].
In the case of `Cc1sc(NC(=O)/C=C/C(=O)O)c(C(N)=O)c1-c1ccc(C(C)(C)C)cc1`, the cell number change was -21.9%. The AC50 under setting [2] is 23.1 µM [falling, partial curve, poor fit].
For the compound `O=C1NC(c2ccccc2)C(C(=O)c2cccs2)C(O)(C(F)(F)F)N1` (stereo unspecified), the cell number change was -30.8%. Moreover, the AC50 under setting [1] is 4.11 µM [falling, full curve]. Moreover, the concentration at half-maximal activity (AC50) under setting [2] was 5.17 µM [falling, full curve].
In the case of `Cc1cc(C)nc(SCC(=O)Oc2ccc3oc(=O)cc(C)c3c2)n1`, the cell number change is -16.3%. For the same compound, the half-maximal activity concentration (AC50) under setting [1] is 0.58 µM [falling, full curve].
With `Cc1ccc(C(=O)N/C(=C\c2ccc(F)cc2)C(=O)NCc2ccncc2)cc1`, the cell number change turned out to be 1.4%. The AC50 under setting [2] is 4.61 µM [rising, partial curve, poor fit].
As to `CC(=O)Nc1ccc(S(=O)(=O)NCC2CCC(C(=O)NCCCN(C)Cc3ccccc3)CC2)cc1` (stereo unspecified), the AC50 was 0.517 µM [falling, full curve, poor fit] under setting [1] and 6.51 µM [falling, single point] under setting [2].
As to `COC(=O)C1C2CCC(C2)C1C(=O)OCC(=O)c1ccccc1` (stereo unspecified), the cell number change is -1.66%. The AC50 under setting [2] was 0.291 µM [falling, full curve, poor fit].

For the origin of these results see PubChem BioAssay AID2685 (National Center for Advancing Translational Sciences (NCATS), 2010).
